PubChem BioAssay AID652243, Drosophila RNAi Screening Center | 2013
The deposit covers about 24,000 reagents; this is a random part of those that have a named target and a result. Of all reagents, 246 (1%) are marked active. 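Plates not normalised; calls are printed but the firefly/Renilla ratio behind them is not deposited; fold cut for lowering reported inconsistently.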 Raw values vary from plate to plate and are shown uncorrected. The numbers tell different reagents against one gene apart. Not stated in the record: the amount of reagent.

Purpose: 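Knock-downs that decrease or increase androgen receptor reporter signal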 (primary screen)
Cell system: Drosophila S2R+ cells
Reagents: long dsRNA against Drosophila genes
Duration: 72 h (48 h, then 24 h hormone)
Challenge: synthetic androgen R1881 at 10 nM for 24 h
Measured: 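Firefly light from an androgen-responsive reporter and Renilla control light per well, raw and unnormalised, for each of two replicates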
Scale: firefly reporter light: higher = more light from androgen-responsive reporter; Renilla control light: higher = more constitutive control signal (cell number, transfection)
Call rule: 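Hit when the log firefly-to-Renilla ratio dropped or increased by a fixed fold versus the mean of GFP or LacZ controls across duplicate plates; lowering cut given as 1.5 and as 3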
Calls: active = hit: reporter lowered or raised; inactive = no hit

predicted target,dsRNA no.,"firefly reporter light, replicate 1","firefly reporter light, replicate 2","Renilla control light, replicate 1","Renilla control light, replicate 2",activity call
nmo,1,1.54e5,1.41e5,3.51e5,3.40e5,inactive
nmo,2,6.58e5,8.04e5,1.16e6,1.38e6,inactive
nmo,3,9.42e5,4.95e5,3.02e6,1.79e6,inactive
CrebB,1,1.02e5,55505,2.13e6,1.76e6,active
CrebB,2,3.09e5,2.32e5,3.61e5,3.51e5,inactive
Rsph3,1,7.49e5,7.76e5,1.59e6,2.23e6,inactive
Rsph3,2,2.54e5,2.24e5,2.65e6,2.82e6,inactive
Rsph3,3,5.09e5,5.62e5,7.24e5,8.70e5,inactive
CG13603,1,77490,1.18e5,5.89e5,5.71e5,inactive
CG5267,1,87656,63407,7.93e5,7.93e5,inactive
E2f2,1,8.37e5,7.06e5,2.93e6,2.07e6,inactive
fidipidine,1,1.10e5,1.34e5,1.90e6,1.90e6,inactive
fidipidine,2,5.38e5,3.78e5,6.06e5,4.76e5,inactive
Tip60,1,1.74e5,1.90e5,9.36e5,8.41e5,inactive
mbf1,1,52535,44322,9.35e5,7.04e5,inactive
CG13674,1,3.47e5,2.74e5,3.80e6,2.30e6,inactive
CG13674,2,2.09e5,2.42e5,5.21e5,7.06e5,inactive
CG17780,1,1.98e5,2.62e5,2.35e6,2.17e6,inactive
ac,1,15832,11663,6.26e5,5.11e5,inactive
ac,2,1.88e6,1.86e6,1.77e6,1.32e6,inactive
Orp8,1,3.02e5,4.32e5,2.48e6,3.17e6,inactive
Orp8,2,66800,76986,6.46e5,5.09e5,inactive
Orp8,3,4.36e5,5.22e5,1.32e6,1.48e6,inactive
CG33631,1,6.62e5,6.31e5,2.22e6,1.63e6,inactive

In a second layout: entries from further up
| predicted target | dsRNA no. | firefly reporter light, replicate 1 | firefly reporter light, replicate 2 | Renilla control light, replicate 1 | Renilla control light, replicate 2 | activity call |
| --- | --- | --- | --- | --- | --- | --- |
| ac | 2 | 1.88e6 | 1.86e6 | 1.77e6 | 1.32e6 | inactive |
| Orp8 | 1 | 3.02e5 | 4.32e5 | 2.48e6 | 3.17e6 | inactive |
| Orp8 | 2 | 66800 | 76986 | 6.46e5 | 5.09e5 | inactive |
